No constants are given. Whether binding was seen depends on the method and setting.
Molecular target: rat Nectin-4 (rat)
Test: condition: binding EC50 about 133 nM were indicated as "-"; flow cytometry, transfected 293T cells

- binding: no binding
B1: N4_mAb 1 (antibody, human IgG1, V domains shown, not shown: a dimerising Fc or GST)
VH: QVQLKQSGPGLVQPSQSLSITCTVSGFSLTNYGVNWVRQPPGKGLEWLGVIWSGGSTDYNAAFISRLSISKDISKSQVFFKMNSLQADDTAKYYCAREGYDGYAMDYWGQGTSVTVSS
VL: DIQMTQSPASLSVSVGETVTITCRASENIFSSLAWYQQKQGKSPQLLVYGATNLADGVPSRFSGSGSGTQYSLKINSLQSEDFGTYWCQHFWGNPWTFGGGTKLEIK

From patent US12723100
